The nature of series [1]: Isothermal titration calorimetry of Ca^2+ binding to S100A4 constructs. The settings on record: for cooperativity of Ca^2+ binding: 10 °C. On the procedure:
Fig. 2 ITC records for Ca^2+ binding to S100A4 constructs: (a) 75 μM wild type at 30 °C; (b) 75 μM wild type at 10 °C; (c) 75 μM E33Q construct at 30 °C; (d) 300 μM D63N construct at 30 °C. For mutant constructs data at 10 °C, see Fig. S1. All preparations were dialysed against the same buffer of 20 mM NaCl, 10 mM Hepes, and 2 mM DTT (pH 7.5).
ITC data were collected using a VP-ITC microcalorimeter (MicroCal Ltd., Northampton, MA) and analysed by fitting to a single-site binding equation or a two-site binding equation using MicroCal Origin software.

For the next series, the system named is M200 filaments. Put plainly: Stopped-flow turbidity, dissociation of M200 filaments on NaCl jump or dilution. The note with it: 20 μM S100A4, NaCl jump. Type of series: biochemical, human. On the procedure:
Fig. 9 Dissociation of M200 filaments by S100A4. (a) Initially, M200 was added (i) from a concentrated stock in 0.5 M NaCl to give a final concentration of 5 μM M200 (with respect to the polypeptide chain) in 100 mM NaCl, 10 mM Hepes, and 0.1 mM Ca^2+ at pH 7.5 and 20 °C. A biphasic rise in turbidity was recorded for 200 s (continuous line). Then 10 μM S100A4 (with respect to monomer concentration) was added (ii), followed by 0.2 mM EGTA (iii) and 1 mM Ca^2+ (iv). […] (b) M200 was diluted (i) into 100 mM NaCl to form filaments as in (a), then 5 μM S100A4 was added (ii), causing a 54% drop in turbidity. A further 5 μM S100A4 (iii) caused turbidity to fall to almost zero. (c) Stopped-flow records monitoring the dissociation of 5 μM M200 filaments on jumping [NaCl] from 100 mM to 120 mM NaCl. Other components of the buffer were 20 mM Hepes, 1 mM Mg^2+, and 100 μM Ca^2+ at pH 7.5 and 20 °C. […] In the presence of 20 μM S100A4 (lower trace), the turbidity decreased by 87% with a rate constant of 0.2 s^− 1.
It is of interest to know whether S100A4 drives depolymerisation solely by binding to free M monomer and allowing the polymer equilibrium to readjust (i.e., via k− 4 and k5), or whether S100A4 also binds to the filament bundle and actively depolymerises an M200 unit (via k6 and k− 7). […]

In the case of “E33Q: S100A4 mutant compromised in the EF1 Ca^2+ binding loop”, the “cooperativity of Ca^2+ binding” value in series [1] is “∼ 1 cooperative”.

“S100A4: recombinant S100A4 expressed in E. coli BL21(DE3)”: the “amplitude, biphasic fit” value in the series on M200 filaments was 85%. In addition, the “cooperativity of Ca^2+ binding” value in series [1] is 1.6 ± 0.4 (cooperative). Besides, in series [1] (20 °C, standard buffer), the “second Ca^2+ site detection” value is on record as “the second site was not evident”. For the same substance, the “S100A4 with prebound Ca^2+” value in series [1] (titration against EGTA) is recorded as “about 20%”.
